Data from patent US20230091297A1, “INHIBITORS OF HSP70 PROTEINS” (ARIZONA BOARD OF REGENTS ON BEHALF OF THE UNIVERSITY OF …, priority 2020, published 2023).
Some results were stated once for a whole list of compounds, not compound by compound.

Sequences of proteins named here, by UniProt entry; tags and fusion partners are left off. Residues count along the entry.
UniProt P11021, 26-636: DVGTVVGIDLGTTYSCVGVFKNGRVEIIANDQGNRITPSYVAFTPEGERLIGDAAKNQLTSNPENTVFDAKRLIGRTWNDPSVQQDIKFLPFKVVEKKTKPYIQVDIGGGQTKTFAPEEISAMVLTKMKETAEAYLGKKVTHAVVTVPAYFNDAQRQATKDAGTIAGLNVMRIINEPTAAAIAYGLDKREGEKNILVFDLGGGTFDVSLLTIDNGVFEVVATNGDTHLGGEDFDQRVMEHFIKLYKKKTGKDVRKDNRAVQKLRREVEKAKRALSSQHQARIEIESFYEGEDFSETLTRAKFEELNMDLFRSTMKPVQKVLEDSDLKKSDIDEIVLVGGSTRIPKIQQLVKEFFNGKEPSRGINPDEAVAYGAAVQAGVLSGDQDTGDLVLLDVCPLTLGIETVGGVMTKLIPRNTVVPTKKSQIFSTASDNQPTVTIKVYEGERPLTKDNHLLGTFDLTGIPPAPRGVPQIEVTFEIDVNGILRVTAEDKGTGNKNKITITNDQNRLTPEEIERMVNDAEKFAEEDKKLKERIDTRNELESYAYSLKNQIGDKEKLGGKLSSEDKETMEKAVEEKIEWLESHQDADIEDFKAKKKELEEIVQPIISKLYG

Target: T1, HSPA5 (Homo sapiens, UniProt P11021)
T1 construct: His6 (N, cleaved yes); made in house; host or cells: E. coli (Codon plus)
Experiment: FP peptide binding assay, HSPA5 (HSPA5-NRLLLTG interaction)
Conditions: hit follow-up, FIGS. 1B, 2A, 2B; tested up to 100 μM; read-out: IC50, dose dependent inhibition of HSPA5-NRLLLTG complex

In the case of “N-methyl-N-(3-methyl-1-(methyl(thiazol-2-yl)amino)-1-oxobutan-2-yl)thiophene carboxamide [Compound 5]”, the IC50 is reported as > 100 µM.
